According to PubChem BioAssay AID1117319 (Southern Research Institute, 2015):
About 1,500 (0.58%) of roughly 260,000 compounds were called active. Inconclusive means that the source gave no clear call. Such entries were picked first, then a sample of the others.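 Rule for the calls: active = inhibition above a set limit at one or more doses, reproduced on every date tested; inconclusive = results disagree between test dates, or hit never tested in dose response; inactive = the rest.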

Amino acid sequences for entries named in this document (tags omitted). A change or cut given only in a name is not applied to a line headed by its entry.
UniProt P69720: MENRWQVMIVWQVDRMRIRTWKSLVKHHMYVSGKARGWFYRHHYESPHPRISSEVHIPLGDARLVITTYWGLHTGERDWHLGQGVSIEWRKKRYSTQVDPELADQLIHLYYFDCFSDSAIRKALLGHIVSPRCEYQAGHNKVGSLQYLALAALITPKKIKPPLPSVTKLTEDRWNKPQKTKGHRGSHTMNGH
UniProt P69721: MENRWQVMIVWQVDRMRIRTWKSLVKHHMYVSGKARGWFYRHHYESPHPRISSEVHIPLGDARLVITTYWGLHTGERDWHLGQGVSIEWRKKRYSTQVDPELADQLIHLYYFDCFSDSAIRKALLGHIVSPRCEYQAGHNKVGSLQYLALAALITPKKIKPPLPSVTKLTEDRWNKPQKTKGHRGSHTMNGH
UniProt P69722: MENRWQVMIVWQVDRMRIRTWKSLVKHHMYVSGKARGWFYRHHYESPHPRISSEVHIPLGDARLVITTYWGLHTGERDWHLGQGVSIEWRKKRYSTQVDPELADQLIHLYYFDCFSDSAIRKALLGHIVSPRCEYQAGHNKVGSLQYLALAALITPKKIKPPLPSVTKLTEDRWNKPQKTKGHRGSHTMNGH
UniProt P69723: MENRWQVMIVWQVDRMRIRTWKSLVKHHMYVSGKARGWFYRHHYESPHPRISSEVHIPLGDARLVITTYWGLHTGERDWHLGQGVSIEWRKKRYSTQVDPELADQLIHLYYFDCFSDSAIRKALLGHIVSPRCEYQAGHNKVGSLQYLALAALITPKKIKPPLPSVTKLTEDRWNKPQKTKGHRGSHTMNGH
UniProt Q9HC16: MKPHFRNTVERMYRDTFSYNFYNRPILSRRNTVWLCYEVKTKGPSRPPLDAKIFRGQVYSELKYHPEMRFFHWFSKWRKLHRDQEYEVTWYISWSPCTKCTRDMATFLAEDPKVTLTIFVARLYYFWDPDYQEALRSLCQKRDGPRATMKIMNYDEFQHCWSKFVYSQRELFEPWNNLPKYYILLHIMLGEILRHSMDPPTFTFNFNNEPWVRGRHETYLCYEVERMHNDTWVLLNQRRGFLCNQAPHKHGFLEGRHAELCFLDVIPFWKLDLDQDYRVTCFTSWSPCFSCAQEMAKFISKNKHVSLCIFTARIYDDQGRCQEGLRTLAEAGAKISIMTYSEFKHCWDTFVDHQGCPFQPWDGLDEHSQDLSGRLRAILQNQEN

target: Virion infectivity factor (Human immunodeficiency virus type 1 group M subtype B (isolate BH10)) + Virion infectivity factor (Human immunodeficiency virus type 1 group M subtype B (isolate BRU/LAI)) + Virion infectivity factor (Human immunodeficiency virus type 1 group M subtype B (isolate PCV12)) + Virion infectivity factor (Human immunodeficiency virus type 1 group M subtype B (isolate HXB2)) + DNA dC->dU-editing enzyme APOBEC-3G (Homo sapiens) (UniProt P69720+P69721+P69722+P69723+Q9HC16); test: inhibitors of Vif binding to APOBEC3G peptide, primary screen, biochemical, TR-FRET, GST-Vif 1-94, biotin-A3G peptide, dose response retest (AID 1117319); settings: hits give high values;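 note: Vif residues 1-94 fused to GST binding biotinylated APOBEC3G peptide 110-148; 0% = full assay without inhibitor and 100% = GST in place of GST-Vif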

Row | SMILES | inhibition
1 | CCOc1ccc(/C=C(\C(=O)O)c2ccc(S(=O)(=O)N3CCOCC3)s2)cc1OC | inactive: 28.4%
2 | O=C(CN1CCOCC1)Nc1ncc(Cc2cccc(Cl)c2Cl)s1 | inconclusive: 35.3%
3 | O=C(O)C1CCCN1C(=O)Nc1ccc(F)cc1 (stereo not given) | inconclusive: 45.8%
4 | CC(C)(C)C1=CC(=O)C(=O)C(C(C)(C)C)=C1 | inconclusive: 43.2%
5 | COc1cccc(OC)c1C(=O)OCC(=O)NCC(C)C | inactive: 14.3%
6 | COc1ccc(NC2c3ccccc3C(=O)N2c2cccnc2)cc1Cl (stereo not given) | inconclusive: 38.9%
7 | Nc1nnc(SCC(=O)OCc2ccccc2)s1 | inactive: 11.6%
8 | COc1ccc(OC)c(-c2c3c([nH]c(=S)c2C#N)CCCC3)c1 | inactive: -14.3%
9 | CCCCCn1c(C)c2c(OCC)cccc(=O)c2c1C | inconclusive: 39.2%
10 | Cc1ccc(S(=O)(=O)N2CCOCC2)cc1C(=O)NC1CCCCC1 | inactive: 1.31%
11 | Cc1noc(C)c1C(=O)N1CCN(c2ccc(OCc3ccccc3)cc2)CC1 | inconclusive: 57.4%
12 | CCOC(=O)Cc1ccc(NCc2ccc(Cl)cc2)cc1 | inconclusive: 35.5%
13 | Cc1ccccc1C(=O)/C=C1/c2ccccc2CC(C)(C)N1C | inconclusive: 44.8%
14 | COc1ccc(C2c3c(ncn(CCCO)c3=N)Oc3ccc4ccccc4c32)cc1OC (stereo not given) | inconclusive: 55.2%
15 | O=C(Cc1ccccc1[N+](=O)[O-])NCC(=O)c1ccc2c(c1)OCO2 | inactive: -9.24%
16 | CCCCNC(=O)c1cc(C)nn1-c1ccccc1 | inconclusive: 35%
17 | COC(=O)c1ccccc1OCCCOc1ccc(C=O)cc1OC | inconclusive: 55.6%
18 | O=C(Nc1nnc(-c2ccc(F)cc2)s1)C1CCN(S(=O)(=O)c2ccc(Cl)cc2)CC1 | inconclusive: 40.6%
19 | CN(C)c1ccc(/C=C/c2cccc[n+]2[O-])cc1 | inconclusive: 37.1%
20 | COC(=O)c1ccc(NC2(C#N)C(=O)Nc3ccccc32)cc1 (stereo not given) | inconclusive: 62.2%
21 | O=C(NC1CCCC1)c1cc(-c2cccs2)on1 | inconclusive: 36.3%
22 | O=C(NC(=S)N1CCCc2ccccc21)c1ccc(Br)cc1 | inactive: -10.8%
23 | CCCn1c(-c2ccc(OC)cc2)nc2nc3ccccc3nc21 | inconclusive: 55%

Row | SMILES | inhibition
24 | CCOC(=O)N1CCC(NC(=O)c2cc(S(=O)(=O)N3CCc4ccccc43)cn2C)CC1 | inactive: -4.57%
25 | O=C1c2oc3ccc(Br)cc3c(=O)c2C(c2cccc(F)c2)N1CCO (stereo not given) | inconclusive: 35.8%
26 | CC1CCCCN1C(=O)CSc1nc2ccccc2[nH]1 (stereo not given) | inactive: -5.81%
27 | Cc1ccc(NC(=O)CNCc2ccccn2)cc1S(=O)(=O)N(C)C | inconclusive: 44.7%
28 | O=C(CN1C(=O)C2C3C=CC(C3)C2C1=O)Nc1cccc2c1CCCC2 (stereo not given) | inconclusive: 34.2%
29 | Cc1cc2c(cc1C)NC1=C(N2)OC(c2cccc(O)c2)C1=O (stereo not given) | inactive: 5.24%
30 | CC(=O)c1ccc(NC(=S)NCCc2ccc(S(N)(=O)=O)cc2)cc1 | inconclusive: 44.8%
31 | O=C(NCc1cccnc1)c1cc2nc(-c3cccs3)cc(C(F)(F)Cl)n2n1 | inactive: -9.65%
32 | CC(C)CCN1CCN(Cc2ccc(N3CCNC3=O)cc2)CC1CCO (stereo not given) | inconclusive: 49%
33 | CC1=[N+](C)c2ccc3ccccc3c2C1(C)C | inconclusive: 63.9%
34 | N#C/C(=C/c1ccc(N2CCCCCC2)o1)c1ccc(Cl)cc1 | inactive: 17.8%
35 | Cc1ccc2oc(-c3cccc(NC(=O)/C=C/c4cccc([N+](=O)[O-])c4)c3C)nc2c1 | inconclusive: 39.5%
36 | CCn1c(SCC(N)=O)nc2sc3c(c2c1=O)CCCC3 | inactive: -2.97%
37 | COc1ccc(Cc2nc(-c3ccc(-n4cccc4)cc3)no2)cc1OC | inconclusive: 36.8%
38 | N/C(=N\OC(=O)C12CC3CC(CC(C3)C1)C2)c1ccccc1 | inconclusive: 34.4%
39 | Cc1ccccc1-c1nc(-c2ccccn2)no1 | inconclusive: 43.5%
40 | O=C(NCC(O)c1ccccc1)c1cccs1 (stereo not given) | inactive: -7.1%
41 | C/C(=N\NC=O)c1ccncc1 | inactive: -3.47%
42 | O=C(CSc1nc2scc(-c3ccco3)c2c(=O)n1-c1ccccc1)NCC1CCCO1 (stereo not given) | inconclusive: 47.3%
43 | COc1cc(OC)c(S(=O)(=O)NCc2ccco2)cc1S(=O)(=O)NCc1ccco1 | inconclusive: 38.5%
44 | CCOc1ccccc1CN1CCN(CCCn2cccn2)CC1CCO (stereo not given) | inconclusive: 40.4%
45 | CC(C)c1cc(C(N)=O)c(NC(=O)C2CCC2)s1 | inconclusive: 43.9%
46 | O=C1C(Cl)=C(Nc2ccccc2O)C(=O)N1CCc1ccccc1 | inconclusive: 37.5%

Row | SMILES | inhibition
47 | O=C(CNC(=O)c1cccc(-n2cccc2)c1)Nc1ccccc1Br | inactive: 4.99%
48 | CN1CCc2c(sc3c2C(=O)NC(c2ccco2)N3)C1 (stereo not given) | inconclusive: 36.5%
49 | c1ccc2[nH]c(CSc3nccs3)nc2c1 | inconclusive: 53%
50 | CN(C)c1ccc(NC(=O)CN2CCC(O)(c3ccccc3)CC2)cc1 | inconclusive: 42.6%
51 | CC(C)(C)C(=O)OCC1OC(n2cnc(C(N)=O)n2)C(O)C1O (stereo not given) | inconclusive: 62.8%
52 | CCn1cc(C(=O)NCCc2ccc(OC)cc2)c(=O)c2ccc(C)nc21 | inconclusive: 40.4%
53 | C/C(CCN1CCc2nc(-c3ccccc3)c(-c3ccccc3)cc2C1)=N\O[C@H](C)c1cn([C@H](CO)Cc2ccccc2)nn1 | inconclusive: 45.2%
54 | COc1ccc(/C=C(/C#N)C(=O)Nc2cc(C)ccc2C)cc1C(=O)O | inconclusive: 51.9%
55 | Cc1ccc(NC(=O)CCC(=O)N/N=C/c2ccc([N+](=O)[O-])o2)cc1C | inconclusive: 37.4%
56 | C[C@]1(C(=O)NCCN2CCOCC2)C=C[C@@H](Cc2ccccc2)N1C(=O)c1ccccc1 | inactive: -2.79%
57 | CCOC(=O)/C=c1\s/c(=C\c2ccc(C)cc2)c(=O)n1CC(=O)NCc1ccco1 | inconclusive: 41.8%
58 | CCOC(=O)C1C(=O)Nc2nc3ccccc3n2C1C(C)C (stereo not given) | inconclusive: -3.2%
59 | COc1ccc(NC(=O)/C=C/c2cc(Br)ccc2OC)cc1 | inactive: -0.44%
60 | CCCCC(CCC(=O)Nc1nccs1)C(=O)O (stereo not given) | inconclusive: 57.4%
61 | CCCCOC(=O)CSC1=C(C#N)C(c2ccccc2OCC)C(C#N)C(=O)N1 (stereo not given) | inconclusive: 36.8%
62 | O=C(/C=C/c1ccc(Br)o1)Nc1nnc(C2CC2)s1 | inconclusive: 48.4%
63 | COCCN(CCOC)S(=O)(=O)c1ccc(OC)cc1 | inconclusive: 54%
64 | Cc1c(/C(O)=C2\C(=O)C(=O)N(CCN(C)C)C2c2ccco2)cnn1-c1ccccc1 (stereo not given) | inconclusive: 59.5%
65 | COc1ccccc1N1CCN(C(=O)CN2C(=O)C3CCCCC3C2=O)CC1 (stereo not given) | inconclusive: 35.9%
66 | Cc1cc(C(N)=O)c2cc(Br)ccc2n1 | inconclusive: 25.6%
67 | CCc1c(C)nc2ncnn2c1N1CCCC(C(=O)NCc2ccc3c(c2)OCO3)C1 (stereo not given) | inconclusive: 36.6%
68 | O=C(N/N=C/c1cc([N+](=O)[O-])cc(Br)c1O)C12CC3CCC(CC(C3)C1)C2 | inconclusive: 54.5%
69 | Cc1ccccc1C(=O)NC1CCS(=O)(=O)C1 (stereo not given) | inactive: -1.4%

Row | SMILES | inhibition
70 | O=[N+]([O-])/C(C=Nc1ccccc1O)=C\Nc1ccccc1O | inconclusive: 34.7%
71 | C/C=C/c1ccc(OCCN2C(=O)NC(C)(C)C2=O)c(OC)c1 | inconclusive: 37%
72 | C#CCOCCOCCOCCNc1nc(N2CCN(C(=O)[C@H](C(C)C)n3cc(CCO)nn3)CC2)nc(N2CCN(C(=O)[C@H](C(C)C)n3cc(CCO)nn3)CC2)n1 | inconclusive: 40%
73 | Cc1cccc(C)c1NC(=O)CN(C)C(=O)c1cccc(-n2cccc2)c1 | inactive: 9.97%
74 | Cc1cc(NC(=O)CSc2nc3c(c(=O)n2-c2ccc(Br)cc2)SCC3)no1 | inconclusive: 45.9%
75 | Cc1cc(NC(=O)CSc2nc3cc(Cl)ccc3s2)no1 | inconclusive: 37.8%
76 | O=C(Nc1ccc(C(=O)N2CCOCC2)cc1)Nc1cccc2ccccc12 | inconclusive: 39.7%
77 | Cc1cc(C(=O)CCl)c(C)n1CCc1ccc(Cl)cc1 | inconclusive: 47.8%
78 | COc1ccc(N2C(=O)C3C(c4ccc(C(=O)O)cc4)NC(Cc4ccccc4)(C(=O)O)C3C2=O)c([N+](=O)[O-])c1 (stereo not given) | inconclusive: 33.9%
79 | N#Cc1c(C(F)(F)F)cc(-c2ccco2)nc1SCc1ccccn1 | inconclusive: 44.6%
80 | COc1ccc(S(=O)(=O)N2CC(O)CC2C(=O)OCC(=O)Nc2ccc(Cl)cn2)cc1 (stereo not given) | inconclusive: 38%
81 | COc1ccccc1NC(=O)COc1ccc(Br)cc1CNC1CCCC1 | inconclusive: 43.2%
82 | O=C(Nc1cccc2ccccc12)c1ccc(OC(=S)N2CCOCC2)cc1 | inconclusive: 33%
83 | COc1ccc(CN(Cc2cccnc2)C(=S)NCCc2ccccc2)cc1OC | inconclusive: 40.4%
84 | CC(C)CC1NC2(C(=O)N(C)c3ccccc32)C2C(=O)N(C(C)C)C(=O)C12 (stereo not given) | inconclusive: 36.1%
85 | CN1C(c2ccc(F)cc2)=CS/C1=C(\C#N)c1nnc2n1-c1ccccc1SC2 | inconclusive: 41.1%
86 | O=C(CCC(=O)CCN1CCCCC1)CCN1CCCCC1 | inconclusive: 56.5%
87 | CC1CCCCC1NC(=O)COC(=O)c1ccc(N(C)C)cc1 (stereo not given) | inconclusive: 45.3%
88 | O=C(Nc1ccc2nc(-c3cccs3)c(-c3cccs3)nc2c1)NC1CC1 | inactive: -3.31%
89 | CCOc1[nH]n(-c2ccc(Cl)cc2)c(=O)c1C=Nc1ccc(Cl)cc1 | inconclusive: 51.2%
90 | COc1ccc(/C=N/NC(=O)c2cccnc2)cc1CN1CCOCC1 | inconclusive: 33.7%

Sorted by molar mass (largest number first): part of the list above
Row | SMILES | inhibition
80 | COc1ccc(S(=O)(=O)N2CC(O)CC2C(=O)OCC(=O)Nc2ccc(Cl)cn2)cc1 (stereo not given) | inconclusive: 38%
85 | CN1C(c2ccc(F)cc2)=CS/C1=C(\C#N)c1nnc2n1-c1ccccc1SC2 | inconclusive: 41.1%
89 | CCOc1[nH]n(-c2ccc(Cl)cc2)c(=O)c1C=Nc1ccc(Cl)cc1 | inconclusive: 51.2%
87 | CC1CCCCC1NC(=O)COC(=O)c1ccc(N(C)C)cc1 (stereo not given) | inconclusive: 45.3%
